Source: PubChem BioAssay AID758 (NMMLSC, 2007)
The campaign covered roughly 190,000 compounds. About 110 (0.058%) were called active. The inconclusive results got no clear call from the source; some entries with a clear call stand among them for comparison.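 The calls were made as follows: active = fluorescent GTP binding to Rab7 beads changed by at least 20 points from the 100% baseline, either direction, mostly lower; inconclusive = compound itself probably fluorescent, or too few beads counted; inactive = the rest.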

Each compound was assayed on Rab7 GTPase wild type (dog), Bodipy-FL-GTP binding (assay: modulators of GTP binding to Rab7, primary screen, biochemical, wildtype, multiplex bead flow cytometry (AID 758;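 also: median green fluorescence of bound Bodipy-FL-GTP per Rab7 bead population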)). Conditions: GST-Rab7 beads, fluorescent GTP binding, at 10 µM, actives lie on both sides, untreated = 100%, excess cold GTP = 0%.

Compound | GTP binding activity (percent of control)
Cc1cc(C(F)(F)F)c(C#N)c(SCC(=O)Nc2nc3ccccc3s2)n1 | inconclusive: 135%
CCCCn1c(=O)c(CCC(=O)OCC(=O)NCc2ccc(OC)c(OC)c2)nc2ccccc21 | inconclusive: 93%
COc1cc(/C=C2/C(=O)NN(c3cccc(F)c3)C2=O)ccc1OC(=O)c1ccco1 | inconclusive: 95%
COCc1cc(=O)n2[nH]c(SCc3ccccc3)nc2n1 | inconclusive: 104%
Brc1ccc(Cn2c(-c3cncs3)nc3ccccc32)cc1 | inconclusive: 102%
Cn1c(=O)cc(SCC(=O)NCCCN2CCOCC2)c2ccc(Cl)cc21 | inconclusive: 102%
CCCN1C(=O)/C(=C\C=C2\N(CC)c3ccccc3C2(C)C)SC1=S | inconclusive: 157%
O=C(O)CC(NC(=O)c1sc2ccccc2c1Cl)c1ccc(OC2CCCC2)cc1 (centres undefined) | inconclusive: 82%
O=C(N/N=C/c1ccc[nH]1)c1ccc(O)cc1 | inconclusive: 102%
O=C(NNC(=O)C1C2CCC(C2)C1C(=O)O)c1ccc(Cl)cc1 (centres undefined) | inactive: 103%
COC(=O)c1sccc1NC(=S)N1CCN(c2ccccc2)CC1 | inconclusive: 97%
O=C(C1CCCN(Cc2cccc(F)c2)C1)N1CCCCC1 (centres undefined) | inactive: 97%
S=C(Nc1ccc(Cl)c(Cl)c1)NC1CCCCC1 | inconclusive: 103%
C=CCn1c(CNc2ccccc2)nnc1SCC(=O)N/N=C/c1ccc(O)cc1O | inconclusive: 92%
Cc1[nH]nc2c1C(c1ccc(Cl)cc1)C(C#N)=C(N)O2 (centres undefined) | inconclusive: 93%
Cc1ccc(-n2c(SCC(=O)Nc3ccc4c5c(cccc35)CC4)nc(O)c(C)c2=O)cc1 | inconclusive: 95%
Cc1ccc(/C(N)=N/OC(=O)CCC2CCCCC2)cc1 | inactive: 96%
CC(Nn1cnnc1)c1cc(Cl)ccc1O (centres undefined) | inconclusive: 92%
CC(=O)N1CCC(N(CCN2CCOCC2)C(=S)Nc2cc(C)ccc2C)CC1 | inconclusive: 102%
CSc1cccc(NC(=S)N(CCN(C)C)C(C)c2ccccn2)c1 (centres undefined) | inconclusive: 95%

Structures above containing a halogen (10):
Compound | GTP binding activity (percent of control)
Cc1cc(C(F)(F)F)c(C#N)c(SCC(=O)Nc2nc3ccccc3s2)n1 | inconclusive: 135%
COc1cc(/C=C2/C(=O)NN(c3cccc(F)c3)C2=O)ccc1OC(=O)c1ccco1 | inconclusive: 95%
Brc1ccc(Cn2c(-c3cncs3)nc3ccccc32)cc1 | inconclusive: 102%
Cn1c(=O)cc(SCC(=O)NCCCN2CCOCC2)c2ccc(Cl)cc21 | inconclusive: 102%
O=C(O)CC(NC(=O)c1sc2ccccc2c1Cl)c1ccc(OC2CCCC2)cc1 (centres undefined) | inconclusive: 82%
O=C(NNC(=O)C1C2CCC(C2)C1C(=O)O)c1ccc(Cl)cc1 (centres undefined) | inactive: 103%
O=C(C1CCCN(Cc2cccc(F)c2)C1)N1CCCCC1 (centres undefined) | inactive: 97%
S=C(Nc1ccc(Cl)c(Cl)c1)NC1CCCCC1 | inconclusive: 103%
Cc1[nH]nc2c1C(c1ccc(Cl)cc1)C(C#N)=C(N)O2 (centres undefined) | inconclusive: 93%
CC(Nn1cnnc1)c1cc(Cl)ccc1O (centres undefined) | inconclusive: 92%

Given tab-delimited: 2 of the compounds above.
Compound	GTP binding activity (percent of control)
CCCCn1c(=O)c(CCC(=O)OCC(=O)NCc2ccc(OC)c(OC)c2)nc2ccccc21	inconclusive: 93%
O=C(O)CC(NC(=O)c1sc2ccccc2c1Cl)c1ccc(OC2CCCC2)cc1 (centres undefined)	inconclusive: 82%

Next results follow.

Compound | GTP binding activity (percent of control)
CC(C)NC(=O)COC(=O)c1ccccc1Oc1ccccc1 | inconclusive: 103%
COC(=O)c1cc(=O)c2c([N+](=O)[O-])ccc(OC)c2o1 | inconclusive: 91%
O=C(NCCO)Nc1ccc2nc(-c3ccco3)c(-c3ccco3)nc2c1 | inconclusive: 86%
Cc1nn2c(N)csc2nc1=O | inconclusive: 79%
COc1cc(/C=N/Nc2ccc(F)cc2F)cc(OC)c1OC | inactive: 99%
CC1(C)Cc2c(sc3c2C2=NCCN2C=N3)CS1 | inactive: 104%
O=C(NC1CCCC1)C1CC(=O)N(C2CCCCCCC2)C1 (centres undefined) | inconclusive: 100%
COc1ccc(CNC(=O)C(c2ccc(C)o2)N(Cc2cccs2)C(=O)Cc2cccs2)cc1 (centres undefined) | inactive: 102%
COc1ccc(C2CC3CC(c4ccccc4)N2O3)cc1 (centres undefined) | inconclusive: 115%
CCOC(=O)c1c(C)[nH]c(C)c1C(=O)COC(=O)c1ccc(Cl)c(S(=O)(=O)NCc2ccccc2)c1 | inactive: 98%
COc1ccc2cc(CN(Cc3ccco3)C(=S)NCC3CCCO3)c(=O)[nH]c2c1 (centres undefined) | inconclusive: 95%
O=C1N(c2cccc3ccccc23)C(c2ccccc2)N2CCCN12 (centres undefined) | inconclusive: 103%
Cc1cc(C)cc(NC(=O)C2CCCN2/C=C/C(=O)C(F)(F)F)c1 (centres undefined) | inactive: 100%
O=C(COC(=O)CNS(=O)(=O)c1ccccc1)Nc1ccc(Cl)cn1 | inconclusive: 102%
C=CCn1c(O)c(N=NC(=O)c2ccccc2NS(=O)(=O)c2cccs2)c2ccccc21 | inactive: 88%
COc1ccc(-c2nc(C#N)c(N3CCN(c4ccccc4)CC3)o2)cc1 | inconclusive: 96%
CC(=O)N1CCC(N(CCCOC(C)C)C(=O)Nc2ccc(C)c(C)c2)CC1 | inconclusive: 91%
CCOc1ccc(NC(=S)N2CCN(CCN3C(=O)c4cccc5cccc(c45)C3=O)CC2)cc1 | inconclusive: 89%
CCOc1cc(-c2nc(-c3ccccc3OC)no2)cc(OCC)c1OCC | inconclusive: 103%
Cc1ccc(OCCSc2nc(N)cc(N)n2)cc1 | inconclusive: 95%

Compound | GTP binding activity (percent of control)
N#Cc1cc(-c2ccccc2)nnc1Oc1ccccc1Cl | inconclusive: 91%
COc1cc(C(=O)OCC(=O)Nc2ccc3c(c2)OC(F)(F)O3)ccc1OCc1c(C)noc1C | active: 28%
CCCOc1ccc(N2C(=O)CC(SCCN)C2=O)cc1 (centres undefined) | inconclusive: 102%
O=C(c1cc(F)ccc1F)C1CCCN(C(=O)CCc2cnccn2)C1 (centres undefined) | inconclusive: 97%
CCC(=O)Oc1ccc(C(=O)Nc2ccc3c(c2)C(=O)N(C2CCCCC2)C3=O)cc1 | inconclusive: 100%
Fc1ccc(CSc2ccc3nnc(-c4cccnc4)n3n2)cc1 | inconclusive: 94%
CC(C)CNC(=O)COC(=O)CNC(=O)c1cc(Cl)cc([N+](=O)[O-])c1 | inconclusive: 99%
Cc1ccc2sc(N(CCCN(C)C)C(=O)c3ccc(Br)s3)nc2c1C | inactive: 93%
N#Cc1c2c(c(-c3ccccc3Cl)[nH]c1=S)CCCC2 | inactive: 91%
COC(CNC(=O)C1CCCN1C(=O)OCc1ccccc1)OC (centres undefined) | inactive: 115%
CC1C(=O)CCN(C(C)C)C1C (centres undefined) | inconclusive: 101%
C[C@H](NC(=O)Nc1ccc2c(c1)OCCO2)C(=O)O | inconclusive: 105%
CCOc1ccc(NC(=O)c2cc3c(C)nc4ccccc4c3o2)cc1 | inconclusive: 95%
COc1cccc(C2CC(c3ccccc3)=NN2S(=O)(=O)c2ccc(C)cc2)c1OC (centres undefined) | inconclusive: 137%
COC(=O)c1cc(Cl)c(NC(=O)c2cc3ccccc3o2)cc1OC | inactive: 99%
Cc1nn(CC(=O)NCc2cccnc2)c(=O)c2ccccc12 | inconclusive: 87%
O=C(Nc1nnc(-c2ccccc2Cl)o1)c1nc2ccccc2s1 | inactive: 95%
COC(=O)c1c(NC(=O)COC(=O)Cn2cnc3ccccc32)sc2c1CCCC2 | inconclusive: 96%
Cc1cc(C(=O)CSc2nn3c(=O)c(C(C)(C)C)nnc3s2)c(C)n1C1CC1 | inconclusive: 96%
